# PubChem BioAssay AID2685 (National Center for Advancing Translational Sciences (NCATS), 2010)
# This is one part of the list. Further columns of the screen follow, without active or inactive calls. Compounds called inactive in the main read-out are mostly missing here. The note in brackets gives the kind of curve behind each potency; many fits are weak.
# Test: qHTS Assay for Lipid Storage Modulators in Drosophila S3 Cells;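 on cell number change: cells counted by Cell Tracker Red CMTPX staining in the red channel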
# Conditions: BODIPY lipid droplet fluorescence, 18-24 h; for cell number change: measured here: cell count max response, cells fed with added oleic acid
# Procedure, shortened: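 Laser-scanning cytometry quantifies lipid droplet accumulation (500–530 nm total intensity; droplet/cell object ratio) in oleic acid-fed (400 uM added) Drosophila S3 cells treated with a concentration series. 20 uM Triacsin C defined 100% inhibition.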
# [1] = measured here: lipid fluorescence (Fed channel) AC50, cells fed with added oleic acid
# [2] = measured here: cell number channel AC50, cells fed with added oleic acid
Structure (SMILES),cell number change,AC50 [1],AC50 [2]
COCCCNC(=O)/C(C#N)=C/c1c(N2CCN(c3ccccc3)CC2)nc2c(C)cccn2c1=O,-13.5%,"29.1 µM [falling, single point]",–
CCc1cc2cc(C)cc(C)c2nc1Cl,10.4%,"0.0651 µM [rising, full curve, poor fit]","4.61 µM [rising, partial curve, poor fit]"
CCN(C(=O)c1cc([N+](=O)[O-])ccc1NCc1cccnc1)c1ccccc1,10.3%,–,"0.731 µM [rising, single point]"
Cc1cccc(/C=N/NC(=O)C(C)Nc2cccc3ccccc23)n1 (configuration not stated),–,"1.46 µM [rising, partial curve]","1.46 µM [rising, partial curve]"
COC(=O)C1=CN(Cc2ccc(OC)c(OC)c2)C=C(C(=O)OC)C1c1cccs1,-1.99%,"6.51 µM [rising, single point]",–
COc1ccc(-c2cc(=O)[nH]c(NCc3ccccc3)n2)cc1,-50.7%,–,"29.1 µM [falling, single point]"
COc1ccccc1OCCCn1cc(C#N)c2ccccc21,-10.2%,"3.66 µM [rising, single point]",–
COc1ccc(-c2c(-c3cc(OC)c(OC)c(OC)c3)noc2C)cn1,4.21%,"2.59 µM [rising, single point]",–
O=C(c1cc(-c2ccc(Cl)cc2)on1)N1CCN(c2ccccc2)CC1,14.3%,–,–
O=C(CCC1CCCN(C(=O)c2cc(C3CC3)[nH]n2)C1)N1CCN(c2ccccn2)CC1 (configuration not stated),-26.5%,"10.3 µM [falling, partial curve]",–
COc1ccc(C(=O)C[n+]2ccccc2/C=N/O)cc1,-5.56%,–,–
C=CCn1c(CCC(=O)Nc2ccc(C)c(Cl)c2)nnc1SCC(=O)Nc1ccccc1C,–,–,"1.84 µM [rising, partial curve]"
CCC1CCCCN1Cc1nc2c(c(=O)n(C)c(=O)n2C)n1Cc1cccc2ccccc12 (configuration not stated),20.8%,"6.51 µM [falling, partial curve, poor fit]",–
O=C(CSc1nnc(C2COc3ccccc3O2)o1)N1CCCCC1 (configuration not stated),-14.5%,"0.00517 µM [falling, full curve, poor fit]",–
CCN(CC(=O)Nc1c(F)cccc1F)C(=O)CCCc1cccs1,-0.251%,–,–
N#Cc1ccccc1NC(=O)CNc1ccccc1N1CCCCC1,12.9%,"4.61 µM [rising, single point]","2.31 µM [rising, partial curve, poor fit]"
Brc1ccc(-c2nnc(-c3ccc4c(c3)OCO4)o2)o1,-21.2%,"0.651 µM [falling, full curve]",–
CCOC(CNC(=O)CN1C(=O)COc2ccc(S(=O)(=O)N3CCOCC3)cc21)OCC,-56.4%,–,"9.2 µM [falling, partial curve]"
COc1ccc(-c2nc(CN3CCC(C(=O)N4CCOCC4)CC3)c(C)o2)cc1C,-35.6%,–,"32.6 µM [falling, single point]"
O=C(CCC(=O)c1cccs1)NNC(=O)c1ccccc1Cl,23.8%,"29.1 µM [rising, single point]",–
CN=C1S/C(=C\c2c(OC)cc(OC)cc2OC)C(=O)N1C,–,"0.411 µM [falling, partial curve]",–

Structure (SMILES),cell number change,AC50 [1],AC50 [2]
CSc1n[nH]c(NC(C)=O)n1,3.97%,"0.00517 µM [falling, full curve, poor fit]",–
O=C(Cn1cncn1)N/N=C/c1ccccc1Cl,27.5%,"0.731 µM [rising, full curve, poor fit]",–
CCOC(=O)c1sc(NC(=O)CCCCCN2C(=O)c3cccc4cccc(c34)C2=O)nc1C,-29.9%,–,"0.461 µM [falling, full curve, poor fit]"
CCOC(=O)C1CCN(CC(O)COc2ccc(C(C)(C)C)cc2)CC1 (configuration not stated),-26.9%,"32.6 µM [falling, single point]",–
O=[N+]([O-])c1cccnc1N1CCN(Cc2ccc3c(c2)OCO3)CC1,–,"29.1 µM [rising, partial curve, poor fit]",–
S=C(c1ccc(N2CCCC2)c(Br)c1)N1CCCCC1,6.21%,"6.51 µM [falling, single point]",–
COc1ccc(C2=C(SC)CC2=NC(C)(C)C)cc1,3.6%,"6.51 µM [rising, single point]","2.31 µM [rising, single point]"
O=C(O)COCC(=O)Nc1ccc(OCCc2ccccc2)cc1,-5.25%,"29.1 µM [rising, single point]",–
COc1ccc(Cl)cc1N1Cc2ccccc2C1,61.5%,"18.4 µM [rising, partial curve]","16.4 µM [rising, partial curve]"
O=C(C1=C[C@@H](c2ccc3c(c2)OCO3)C[C@@H](OCc2ccc(CO)cc2)O1)N1CCOCC1,9.78%,"2.06 µM [rising, partial curve]",–
CS(=O)(=O)N1CCCC(C(=O)NCc2ccco2)C1 (configuration not stated),0.309%,"16.4 µM [falling, single point]",–
Cc1ccc2nsnc2c1S(=O)(=O)N1CCN(CCc2ccccc2)CC1,-1.62%,–,–
Cc1cc(C)n2nc(C(=O)OCC(=O)c3c[nH]c4ccccc34)nc2n1,-0.198%,–,–
NC(=O)CN1C(=O)C(=O)N(Cc2ccc(F)cc2)C1=O,45.8%,"8.2 µM [rising, partial curve]","13 µM [rising, partial curve, poor fit]"
Cc1onc(-c2c(Cl)cccc2Cl)c1C(=O)Nc1nccs1,20.2%,–,–
CCNC(=O)OCc1cn(-c2ccccc2)nn1,53.6%,"3.66 µM [rising, full curve]",–
CCOc1ccc(C2c3c(oc4cc(C)c(C)cc4c3=O)C(=O)N2CCCN2CCOCC2)cc1 (configuration not stated),10.1%,"1.16 µM [rising, full curve, poor fit]",–
C[C@@H](C(=O)Nc1ccc2c(c1)OCCO2)n1nnc2ccccc2c1=O,-18.7%,"6.51 µM [rising, single point]",–
Cc1cc(NC(=O)NCc2ccccc2)c(=O)n(Cc2ccc(F)cc2)c1,10.8%,–,–
O=C(O)C(Cc1ccc(Cl)cc1)Sc1nc2ccccc2[nH]1 (configuration not stated),47.7%,–,"18.4 µM [rising, partial curve, poor fit]"
O=C(CN1C(=O)NC2(CCc3ccccc32)C1=O)Nc1cc(C(F)(F)F)ccc1N1CCOCC1 (configuration not stated),-14.4%,–,–

# Some of these compounds in order of molecular weight, smallest number first:
Structure (SMILES),cell number change,AC50 [1],AC50 [2]
CSc1n[nH]c(NC(C)=O)n1,3.97%,"0.00517 µM [falling, full curve, poor fit]",–
CCNC(=O)OCc1cn(-c2ccccc2)nn1,53.6%,"3.66 µM [rising, full curve]",–
COc1ccc(Cl)cc1N1Cc2ccccc2C1,61.5%,"18.4 µM [rising, partial curve]","16.4 µM [rising, partial curve]"
COc1ccc(C2=C(SC)CC2=NC(C)(C)C)cc1,3.6%,"6.51 µM [rising, single point]","2.31 µM [rising, single point]"
CS(=O)(=O)N1CCCC(C(=O)NCc2ccco2)C1 (configuration not stated),0.309%,"16.4 µM [falling, single point]",–
O=C(O)C(Cc1ccc(Cl)cc1)Sc1nc2ccccc2[nH]1 (configuration not stated),47.7%,–,"18.4 µM [rising, partial curve, poor fit]"
O=[N+]([O-])c1cccnc1N1CCN(Cc2ccc3c(c2)OCO3)CC1,–,"29.1 µM [rising, partial curve, poor fit]",–
S=C(c1ccc(N2CCCC2)c(Br)c1)N1CCCCC1,6.21%,"6.51 µM [falling, single point]",–
Cc1onc(-c2c(Cl)cccc2Cl)c1C(=O)Nc1nccs1,20.2%,–,–
CCOC(=O)C1CCN(CC(O)COc2ccc(C(C)(C)C)cc2)CC1 (configuration not stated),-26.9%,"32.6 µM [falling, single point]",–
Cc1cc(NC(=O)NCc2ccccc2)c(=O)n(Cc2ccc(F)cc2)c1,10.8%,–,–
Cc1ccc2nsnc2c1S(=O)(=O)N1CCN(CCc2ccccc2)CC1,-1.62%,–,–
CCOC(=O)c1sc(NC(=O)CCCCCN2C(=O)c3cccc4cccc(c34)C2=O)nc1C,-29.9%,–,"0.461 µM [falling, full curve, poor fit]"
O=C(CN1C(=O)NC2(CCc3ccccc32)C1=O)Nc1cc(C(F)(F)F)ccc1N1CCOCC1 (configuration not stated),-14.4%,–,–

# Additional results:

Structure (SMILES),cell number change,AC50 [1],AC50 [2]
Cc1ccc(-c2n[nH]c3c2C(c2cccc(O)c2)N(c2ccc(C(=O)O)cc2)C3=O)cc1 (configuration not stated),26.2%,"29.1 µM [rising, single point]",–
COC(=O)c1cc(C(=O)OCC(=O)NC(=O)NCc2ccccc2)cc([N+](=O)[O-])c1,15.2%,"4.11 µM [rising, single point]",–
Cc1ccccc1OCC(=O)NNC(=O)C1CCN(c2ncnc3sc(C)c(C)c23)CC1,58.2%,"29.1 µM [rising, single point]","20.6 µM [rising, partial curve]"
O=S(=O)(NCc1cccnc1)c1cccn1-c1ncc(C(F)(F)F)cc1Cl,-11%,–,–
CCCOC(=O)c1ccc(S(N)(=O)=O)o1,-72.9%,"9.2 µM [falling, partial curve]","29.1 µM [falling, single point]"
Cc1onc(-c2ccccc2Cl)c1C(=O)Nc1nnc(C(C)C)s1,-18%,"11.6 µM [falling, partial curve]",–
Cn1cc(CN2CCCC(C(=O)c3cccs3)C2)c(-c2cccc(Cl)c2)n1 (configuration not stated),2.91%,"0.651 µM [falling, partial curve, poor fit]",–
O=C(COC(=O)c1ccc(Cl)nc1)NCCC1=CCCCC1,19.4%,–,–
O=C1CC(C(=O)N2CCN(c3ccccc3Cl)CC2)CN1Cc1ccccc1 (configuration not stated),-15.1%,"0.103 µM [falling, full curve, poor fit]","0.13 µM [falling, full curve, poor fit]"
CCn1c(SCC(=O)Nc2cccc(F)c2)nnc1-c1cc2cc(Br)ccc2o1,–,"6.51 µM [rising, single point]",–
Cc1ccc(-c2nc(NCC3CCCO3)sc2C)cc1 (configuration not stated),50.7%,"0.146 µM [rising, full curve]","29.1 µM [rising, single point]"
O=C(Nc1cccn2ncnc12)C(Cl)Cl,-16%,–,"7.31 µM [falling, partial curve, poor fit]"
CC(CCc1ccccc1)NC(=O)CCC(=O)N1CCC(C(=O)O)CC1 (configuration not stated),9.85%,"29.1 µM [rising, single point]",–
COC(=O)c1c(NC(=O)CN2C(=O)NC(CCc3ccccc3)C2=O)sc2c1CCCCC2 (configuration not stated),12.9%,"23.1 µM [rising, single point]",–
CC(C)CC1NC(=O)N(Cc2cc(=O)n3ccsc3n2)C1=O (configuration not stated),19.8%,–,–
CC1CCN(CCC(=O)Nc2ccc(F)c(F)c2)CC1,-1.65%,"0.58 µM [rising, single point]",–
O=C(OCC1CCCN2CCCCC12)c1ccc2c(c1)OCO2 (configuration not stated),-9.69%,"0.326 µM [falling, partial curve]",–
COC(=O)C1=C(C)N(C)C(=S)NC1c1c(OC)ccc2ccccc12 (configuration not stated),154%,–,–
COc1cccc(C(=O)c2cc3cc(Cl)ccc3[nH]2)c1,3.63%,"0.206 µM [rising, full curve, poor fit]",–
CCOP(=O)(OCC)C(Nc1ccc([N+](=O)[O-])cc1)c1ccc(Cl)cc1 (configuration not stated),49.3%,"18.4 µM [rising, single point]",–
